Measured values from PubChem BioAssay AID330 (DTP/NCI, 2004).
The list shows only some results of the screen, not a fair sample: it is rich in T/C values a quarter to a half above the control, in often repeated tests (any T/C) and in doses without a T/C. Other doses and runs of a compound stand elsewhere. T/C: endpoint of the treated group in % of that of the vehicle group. Some entries give survivors of the animals treated and no T/C: the source holds a T/C of zero for them, seemingly a mark for toxic or unscored doses. Some survivor counts are full or nearly so, which does not show that the dose was tolerated: the source hardly ever lists a survival T/C far under the control, and the zero likely stands for such cases as well. Survivors were counted at the toxicity check, usually on the fifth day, unless a day is given; later deaths do not show. Schedules are NCI's codes, taken here to give the interval after Q, in days (D) or hours (H), and the number of doses after X. Some doses were run more than once; their values stand side by side, smallest first. Where survival is the endpoint, this PubChem deposit counts one and a half times the control or more as active, and values a quarter to a half above the control carry no call in these data; other NCI protocols may use other cut-offs. Some T/C values carry the count of animals alive at the toxicity check (mostly the fifth day); where none is given, no animal had died by that day.

System: P388 leukemia ip, CD2F1 mice, survival T/C
Assay: NCI In Vivo Anticancer Drug Screen. Data for tumor model P388 Leukemia (intraperitoneal) in CD2F1 (CDF1) mice
Conditions: T/C endpoint: median survival time, higher T/C = longer survival
[1] = dose: 120.0 mg/kg/injection, schedule: Q01DX005 (ip), vehicle: saline with Tween-80
[2] = dose: 240.0 mg/kg/injection, schedule: Q01DX005 (ip), vehicle: saline with Tween-80
[3] = dose: 100.0 mg/kg/injection, schedule: Q01DX009 (ip), vehicle: saline with Tween-80
[4] = dose: 200.0 mg/kg/injection, schedule: Q01DX005 (ip), vehicle: saline with Tween-80
[5] = dose: 60.0 mg/kg/injection, schedule: Q01DX005 (ip), vehicle: Klucel (hydroxypropylcellulose) (HPC)
[6] = dose: 120.0 mg/kg/injection, schedule: Q01DX005 (ip), vehicle: Klucel (hydroxypropylcellulose) (HPC)
[7] = dose: 240.0 mg/kg/injection, schedule: Q01DX005 (ip), vehicle: Klucel (hydroxypropylcellulose) (HPC)
[8] = dose: 400.0 mg/kg/injection, schedule: Q01DX009 (ip), vehicle: saline with Tween-80

Question: Which results are given for `CCCCCCCCCC(=O)Oc1cccc2c1CC(C[Se]c1ccccc1)C(=O)O2` (stereo unspecified)?
Answer: survivor count (dose: 15.0 mg/kg/injection, schedule: Q01DX005 (ip), vehicle: saline with Tween-80): 6 of 6; survivor count (dose: 30.0 mg/kg/injection, schedule: Q01DX005 (ip), vehicle: saline with Tween-80): 6 of 6; survivor count (dose: 60.0 mg/kg/injection, schedule: Q01DX005 (ip), vehicle: saline with Tween-80): 6 of 6; survivor count [1]: 6 of 6; survivor count [2]: 6 of 6

Question: `COC1C=COC2(C)Oc3c(C)c(O)c4c(O)c(c(C5SCCS5)c(O)c4c3C2=O)NC(=O)/C(C)=C\C=CC(C)C(O)C(C)C(O)C(C)C(OC(C)=O)C1C` (stereo unspecified) was tested. Which T/C [3] did it give?
Answer: The T/C was 129 % of control.

Question: Which results are given for `CN=C(c1ccc(NC(=O)c2ccc(C(=O)Nc3ccc(C(=NC)N4CCCC4)cc3)cc2)cc1)N1CCCC1`?
Answer: survivor count (dose: 6.25 mg/kg/injection, schedule: Q01DX005 (ip), vehicle: Klucel (hydroxypropylcellulose) (HPC)): 0 of 6; survivor count (dose: 12.5 mg/kg/injection, schedule: Q01DX005 (ip), vehicle: Klucel (hydroxypropylcellulose) (HPC)): 0 of 6; survivor count (dose: 25.0 mg/kg/injection, schedule: Q01DX005 (ip), vehicle: Klucel (hydroxypropylcellulose) (HPC)): 0 of 6; survivor count (dose: 50.0 mg/kg/injection, schedule: Q01DX005 (ip), vehicle: Klucel (hydroxypropylcellulose) (HPC)): 0 of 6; survivor count (dose: 100.0 mg/kg/injection, schedule: Q01DX005 (ip), vehicle: Klucel (hydroxypropylcellulose) (HPC)): 0 of 6; survivor count (dose: 200.0 mg/kg/injection, schedule: Q01DX005 (ip), vehicle: Klucel (hydroxypropylcellulose) (HPC)): 0 of 6

Question: What does the source list for `O=C1C(Cl)=C(N2CC2)C(=O)C(Cl)=C1N1CC1`?
Answer: T/C (dose: 0.31 mg/kg/injection, schedule: Q01DX009 (ip), vehicle: saline with Tween-80): 126 % of control; T/C (dose: 0.63 mg/kg/injection, schedule: Q01DX009 (ip), vehicle: saline with Tween-80): 136 % of control; T/C (dose: 1.25 mg/kg/injection, schedule: Q01DX009 (ip), vehicle: saline with Tween-80): 148 % of control; T/C (dose: 2.5 mg/kg/injection, schedule: Q01DX009 (ip), vehicle: saline with Tween-80): 148 % of control; survivor count (dose: 20.0 mg/kg/injection, schedule: Q01DX009 (ip), vehicle: saline with Tween-80): 6 of 6

Question: What does the source list for `Clc1[nH]nc2ccccc12`?
Answer: survivor count (dose: 100.0 mg/kg/injection, schedule: Q04DX003 (ip), vehicle: saline with Tween-80): 6 of 6; survivor count (dose: 200.0 mg/kg/injection, schedule: Q04DX003 (ip), vehicle: saline with Tween-80): 6 of 6; survivor count (dose: 400.0 mg/kg/injection, schedule: Q04DX003 (ip), vehicle: saline with Tween-80): 3 of 6

Question: `C=C1C(=O)OC2CC3(C)OC(=CC3=O)/C(C)=C\C(OC(=O)C3(C)OC3C)C12` (stereo unspecified) was tested. Which survivor count (dose: 25.0 mg/kg/injection, schedule: Q01DX005 (ip), vehicle: distilled water + Tween-80) did it give?
Answer: The survivor count was 2 of 6.

Question: What about the survivor count (dose: 25.0 mg/kg/injection, schedule: Q01DX005 (ip), vehicle: water) of the same compound?
Answer: The survivor count was 2 of 6.

Question: What about the survivor count (dose: 50.0 mg/kg/injection, schedule: Q01DX005 (ip), vehicle: water) of the same compound?
Answer: The survivor count was 0 of 6.

Question: And the survivor count (dose: 100.0 mg/kg/injection, schedule: Q01DX005 (ip), vehicle: water)?
Answer: The survivor count was 0 of 6.

Question: `CCOc1ccc2c(N=[N+]=[N-])cc(C)nc2c1` was tested. Which survivor count [1] did it give?
Answer: The survivor count was 6 of 6.

Question: What about the survivor count [2] of the same compound?
Answer: The survivor count was 0 of 6.

Question: How did the survivor count (dose: 200.0 mg/kg/injection, schedule: Q04DX003 (ip), vehicle: DMSO) turn out when `O=C(CCSCCCl)Nc1c(C(=O)O)cc([N+](=O)[O-])cc1[N+](=O)[O-]` was run?
Answer: The survivor count was 6 of 6.

Question: For `COc1cccc2c1C(=O)c1c(O)c3c(c(O)c1C2=O)C[C@@](O)(C(C)=O)C[C@@H]3OC1CC(NCC(c2ccccc2)c2ccccc2)C(O)C(C)O1` (stereo partly specified), which T/C (dose: 200.0 mg/kg/injection, schedule: Q04DX003 (ip), vehicle: water) is on record?
Answer: The T/C was 147 % of control.

Question: `COc1ccc(/C=C/C(=N/Nc2ccccc2)C(C)CN(C)C)cc1` (stereo unspecified) was tested. Which survivor count [2] did it give?
Answer: Its survivor count is 0 of 6.

Question: For `COc1ccc2c(c1)c(CC(N)=O)c(C)n2C(=O)c1ccc(Cl)nc1`, which survivor count (dose: 211.0 mg/kg/injection, schedule: Q01DX005 (ip), vehicle: saline with Tween-80) is on record?
Answer: The survivor count was 6 of 6.

Question: Which T/C (dose: 0.25 mg/kg/injection, schedule: Q01DX009 (ip), vehicle: Klucel (hydroxypropylcellulose) (HPC)) does the source give for `COc1cc2c(c(OC)c1OC)-c1ccc(OC)c(=O)cc1[C@@H](NC(=O)c1ccccc1)CC2` here?
Answer: Its T/C is 128 % of control.

Question: And the T/C (dose: 1.0 mg/kg/injection, schedule: Q01DX009 (ip), vehicle: saline with Tween-80)?
Answer: The T/C was 143 % of control.

Question: What about the survivor count (dose: 2.0 mg/kg/injection, schedule: Q01DX009 (ip), vehicle: Klucel (hydroxypropylcellulose) (HPC)) of the same compound?
Answer: The survivor count was 6 of 6.

Question: What about the T/C (dose: 2.5 mg/kg/injection, schedule: Q04DX003 (ip), vehicle: saline with Tween-80) of the same compound?
Answer: Its T/C is 147 % of control [5 of 6 alive].

Question: What about the T/C (dose: 3.3 mg/kg/injection, schedule: Q04DX003 (ip), vehicle: saline sonified) of the same compound?
Answer: The T/C was 145 % of control.

Question: And the survivor count (dose: 4.0 mg/kg/injection, schedule: Q01DX009 (ip), vehicle: Klucel (hydroxypropylcellulose) (HPC))?
Answer: Its survivor count is 0 of 6.

Question: And the survivor count (dose: 5.0 mg/kg/injection, schedule: Q01DX009 (ip), vehicle: distilled water + Tween-80)?
Answer: The survivor count was 0 of 6.

Question: What about the survivor count (dose: 10.0 mg/kg/injection, schedule: Q01DX009 (ip), vehicle: distilled water + Tween-80) of the same compound?
Answer: The survivor count was 0 of 6.

Question: And the survivor count (dose: 10.0 mg/kg/injection, schedule: Q04DX003 (ip), vehicle: saline with Tween-80)?
Answer: The survivor count was 3 of 6.

Question: And the survivor count (dose: 20.0 mg/kg/injection, schedule: Q04DX003 (ip), vehicle: saline with Tween-80)?
Answer: The survivor count was 5 of 6.

Question: And the survivor count (dose: 40.0 mg/kg/injection, schedule: Q04DX003 (ip), vehicle: saline with Tween-80)?
Answer: Its survivor count is 1 of 6.

Question: And the survivor count (dose: 80.0 mg/kg/injection, schedule: Q04DX003 (ip), vehicle: saline with Tween-80)?
Answer: Its survivor count is 0 of 6.

Question: With `NNC(=O)OC12CC3CC(CC(C3)C1)C2` as the compound, how does the survivor count [3] read?
Answer: The survivor count was 5 of 6.

Question: `CC(=O)C(=Cc1ccc(Cl)cc1)C(C)=O` was tested. Which survivor count [4] did it give?
Answer: Its survivor count is 3 of 5.

Question: With `CC1=C(C)C(C#N)N(C)CC1` (stereo unspecified) as the compound, how does the survivor count (dose: 15.0 mg/kg/injection, schedule: Q01DX005 (ip), vehicle: Klucel (hydroxypropylcellulose) (HPC)) read?
Answer: Its survivor count is 0 of 6.

Question: What about the survivor count [5] of the same compound?
Answer: Its survivor count is 0 of 6.

Question: What about the survivor count [6] of the same compound?
Answer: The survivor count was 0 of 6.

Question: What about the survivor count [7] of the same compound?
Answer: Its survivor count is 0 of 6.

Question: `COc1ccccc1N=NC1=C2Sc3ccccc3N=C1N(c1ccccn1)C(=S)N2c1ccc(Cl)cc1` was tested. Which survivor count (dose: 100.0 mg/kg/injection, schedule: Q01DX005 (ip), vehicle: saline with Tween-80) did it give?
Answer: The survivor count was 6 of 6.

Question: What about the survivor count [4] of the same compound?
Answer: Its survivor count is 2 of 6.

Question: For `CN1CCN(N=Nc2ccccc2Cl)CC1`, which survivor count (dose: 100.0 mg/kg/injection, schedule: Q01DX009 (ip), vehicle: saline) is on record?
Answer: The survivor count was 6 of 6.

Question: What about the survivor count (dose: 200.0 mg/kg/injection, schedule: Q01DX009 (ip), vehicle: saline) of the same compound?
Answer: The survivor count was 6 of 6.

Question: Which results are given for `CONC(=O)N/N=C\c1c(CO)cnc(C)c1O`?
Answer: survivor count [5]: 0 of 6; survivor count [6]: 0 of 6; survivor count [7]: 0 of 6

Question: With `CCC(/C=C/C1OC(=O)C=CC1C)=C\C(C)C/C=C/C(C)=C/C(C)C(=O)C(C)C(O)C(C)C/C(C)=C/C(=O)O` (stereo unspecified) as the compound, how does the T/C (dose: 12.5 micrograms/kg/injection, schedule: Q01DX005 (ip), vehicle: saline + alcohol) read?
Answer: The T/C was 137 % of control.

Question: And the T/C (dose: 25.0 micrograms/kg/injection, schedule: Q01DX005 (ip), vehicle: saline + alcohol)?
Answer: The T/C was 127 and 141 % of control.

Question: And the T/C (dose: 50.0 micrograms/kg/injection, schedule: Q01DX005 (ip), vehicle: saline + alcohol)?
Answer: Its T/C is 146 and 148 % of control.

Question: And the survivor count (dose: 100.0 micrograms/kg/injection, schedule: Q01DX005 (ip), vehicle: saline + alcohol)?
Answer: Its survivor count is 6 of 6.

Question: And the survivor count (dose: 200.0 micrograms/kg/injection, schedule: Q01DX005 (ip), vehicle: saline + alcohol)?
Answer: Its survivor count is 3 of 6 and 4 of 6.

Question: `C/C=C(\C)C(C)(C#N)Nc1ccccc1` (stereo unspecified) was tested. Which survivor count [3] did it give?
Answer: The survivor count was 5 of 6.

Question: And the survivor count [8]?
Answer: Its survivor count is 6 of 6.

Question: Which survivor count [3] does the source give for `CC(C)C12C=CC(C)(CC1)OO2` (stereo unspecified) here?
Answer: Its survivor count is 0 of 6.

Question: What about the survivor count (dose: 200.0 mg/kg/injection, schedule: Q01DX009 (ip), vehicle: saline with Tween-80) of the same compound?
Answer: Its survivor count is 0 of 6.

Question: What about the survivor count [8] of the same compound?
Answer: Its survivor count is 0 of 6.

Question: `COC1/C=C/OC2(C)Oc3c(C)c(O)c4c(O)c(c(/C=N/N5C(C)CN(Cc6ccc(NC(C)=O)cc6)CC5C)c(O)c4c3C2=O)NC(=O)C(C)=C/C=C/C(C)C(O)C(C)C(O)C(C)C(OC(C)=O)C1C` (stereo unspecified) was tested. Which T/C (dose: 50.0 mg/kg/injection, schedule: Q01DX009 (ip), vehicle: saline with Tween-80) did it give?
Answer: Its T/C is 130 % of control.
